Experimental data published in publication PMC2921345.
These are yes or no findings as the source states them, for the method shown. Binding seen in cells or lysates may run through a third protein. Some binding calls cover weakened binding; strength is not graded here.

By UniProt entry, the sequences of proteins in these tests, tags left out. Where a name states a change or a piece, a line headed by the entry shows the natural chain unless it says otherwise.
UniProt O08816: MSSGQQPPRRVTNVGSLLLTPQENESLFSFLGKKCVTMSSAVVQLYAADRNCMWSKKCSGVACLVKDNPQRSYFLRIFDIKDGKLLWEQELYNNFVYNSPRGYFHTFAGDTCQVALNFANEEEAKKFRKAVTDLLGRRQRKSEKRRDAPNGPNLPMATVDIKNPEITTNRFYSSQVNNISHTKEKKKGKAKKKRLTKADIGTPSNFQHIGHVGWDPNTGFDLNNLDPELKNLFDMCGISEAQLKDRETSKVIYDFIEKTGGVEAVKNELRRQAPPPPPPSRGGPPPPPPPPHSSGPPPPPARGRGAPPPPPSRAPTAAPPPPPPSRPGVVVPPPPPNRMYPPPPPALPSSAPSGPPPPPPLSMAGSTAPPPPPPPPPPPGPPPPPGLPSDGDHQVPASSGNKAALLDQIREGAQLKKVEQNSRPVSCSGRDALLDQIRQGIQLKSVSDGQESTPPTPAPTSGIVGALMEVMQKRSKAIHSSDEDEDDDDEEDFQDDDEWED
UniProt P60953: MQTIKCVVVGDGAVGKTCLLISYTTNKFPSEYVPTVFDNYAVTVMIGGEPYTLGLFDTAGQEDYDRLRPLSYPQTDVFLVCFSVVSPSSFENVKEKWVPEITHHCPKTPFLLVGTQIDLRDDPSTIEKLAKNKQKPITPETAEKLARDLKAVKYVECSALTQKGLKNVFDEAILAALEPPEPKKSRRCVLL

Assays:
mRFP-N-WASP (wild type) [1] = target: mRFP-N-WASP (wild type) (UniProt O08816); assay: FRET or BRET; AP-FRET in cells with low level GFP-Cdc42G12V plus mRFP-Toca-1/HA-N-WASP or mRFP-N-WASP/myc-Toca-1, 36 hours; ROI on tubules
mRFP-N-WASP (wild type) [2] = target: mRFP-N-WASP (wild type) (UniProt O08816); assay: FRET or BRET; AP-FRET in cells with low level GFP-Cdc42G12V plus mRFP-Toca-1/HA-N-WASP or mRFP-N-WASP/myc-Toca-1, 36 hours; ROI on membrane vesicles

GFP-Cdc42G12V (dominant active Cdc42) (from UniProt P60953 1-191)
binding (mRFP-N-WASP (wild type) [1]): binds
binding (mRFP-N-WASP (wild type) [2]): binds
